Laboratory results taken from patent publication US20200231640A1.
Results are given in words; binding and its absence hold for the method and conditions named. Binding seen in cells or lysates may run through a third protein. Some results given as binding are weak or reduced against the parent protein; the word gives no strength.

Protein sequences, listed by entry. Tags and fused reporters are not part of them.
UniProt P31946: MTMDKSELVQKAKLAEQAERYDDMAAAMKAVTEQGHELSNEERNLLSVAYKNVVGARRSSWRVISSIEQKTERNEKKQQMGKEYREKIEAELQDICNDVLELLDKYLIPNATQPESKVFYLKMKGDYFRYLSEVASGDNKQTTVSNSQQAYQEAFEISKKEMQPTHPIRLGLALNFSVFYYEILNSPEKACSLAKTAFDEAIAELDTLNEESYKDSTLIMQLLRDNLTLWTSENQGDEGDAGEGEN

Columns and labels:
14-3-3β (human) [1] = target: 14-3-3β (human) (UniProt P31946); assay: co-immunoprecipitation, immunoblot
14-3-3β (human) [2] = target: 14-3-3β (human) (UniProt P31946); assay: co-immunoprecipitation, immunoblot (FIG. 10C)
14-3-3β (human) [3] = target: 14-3-3β (human) (UniProt P31946); assay: co-immunoprecipitation (capture with anti-14-3-3β, immunoblot with anti-Cdc25C)

- binding (14-3-3β (human) [1]): binds
- binding (14-3-3β (human) [2]): binds
- binding (14-3-3β (human) [3]): binds
B1: Cdc25C (enzyme, human, UniProt P30307 2-473, looked up)
chain: STELFSSTREEGSSGSGPSFRSNQRKMLNLLLERDTSFTVCPDVPRTPVGKFLGDSANLSILSGGTPKRCLDLSNLSSGEITATQLTTSADLDETGHLDSSGLQEVHLAGMNHDQHLMKCSPAQLLCSTPNGLDRGHRKRDAMCSSSANKENDNGNLVDSEMKYLGSPITTVPKLDKNPNLGEDQAEEISDELMEFSLKDQEAKVSRSGLYRSPSMPENLNRPRLKQVEKFKDNTIPDKVKKKYFSGQGKLRKGLCLKKTVSLCDITITQMLEEDSNQGHLIGDFSKVCALPTVSGKHQDLKYVNPETVAALLSGKFQGLIEKFYVIDCRYPYEYLGGHIQGALNLYSQEELFNFFLKKPIVPLDTQKRIIIVFHCEFSSERGPRMCRCLREEDRSLNQYPALYYPELYILKGGYRDFFPEYMELCEPQSYCPMHHQDHKTELLRCRSQSKVQEGERQLREQIALLVKDMSP
